Assay results reported in PubChem BioAssay AID2535 (National Center for Advancing Translational Sciences (NCATS), 2010).
The source calls these results inconclusive, neither active nor inactive. The call rests on the fitted dose curve; in most records, active means well fitted curve in the direction sought with a large enough effect; inconclusive means small, poorly fitted or top-dose-only effect, or effect the other way, or another doubt; inactive means no such curve, though single readings can be large or run the other way. Potencies of inconclusive entries are doubtful fits and often do not repeat.

Sequences of proteins named here, by UniProt entry; tags and fusion partners are left off. A change or cut given only in a name is not applied to a line headed by its entry.
UniProt P30613: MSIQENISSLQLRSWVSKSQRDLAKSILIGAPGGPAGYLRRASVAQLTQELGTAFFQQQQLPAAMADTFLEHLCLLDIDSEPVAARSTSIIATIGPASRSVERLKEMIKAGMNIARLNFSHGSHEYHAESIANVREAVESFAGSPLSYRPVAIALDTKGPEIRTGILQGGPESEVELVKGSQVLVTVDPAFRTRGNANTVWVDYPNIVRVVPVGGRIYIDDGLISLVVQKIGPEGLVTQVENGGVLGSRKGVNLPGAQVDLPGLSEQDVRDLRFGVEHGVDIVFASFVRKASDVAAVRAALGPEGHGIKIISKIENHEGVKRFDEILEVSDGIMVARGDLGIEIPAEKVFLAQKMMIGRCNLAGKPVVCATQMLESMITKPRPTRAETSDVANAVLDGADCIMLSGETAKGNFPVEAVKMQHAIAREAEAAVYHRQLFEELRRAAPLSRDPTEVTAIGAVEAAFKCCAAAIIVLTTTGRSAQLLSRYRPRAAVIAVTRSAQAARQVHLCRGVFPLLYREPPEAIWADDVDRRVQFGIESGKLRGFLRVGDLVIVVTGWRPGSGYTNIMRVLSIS

biological target: Pyruvate kinase PKLR (Homo sapiens) (UniProt P30613); assay: Secondary Concentration-Response Assay for Activators of Human Liver Pyruvate Kinase: for Probe SAR; settings: purified hPK-L, ATP production, Kinase-Glo luminescence
Excerpt: NIH Chemical Genomics Center [NCGC]
Matthew G. Vander Heiden, M.D., Ph.D. [Harvard Medical School, 77 Avenue Louis Pasteur, Boston, MA 02115]
Human pyruvate kinase liver (hPK-L) enzyme was supplied as a highly purified (>95% pure) preparation from Harvard Medical School and assayed for its ability to generate ATP from ADP using phosphoenolpyruvate (PEP) as a substrate. ATP generation was detected in a coupled reaction by luciferase-mediated luminescence, an ATP-dependent process. Pyruvate kinase substrates, PEP and ADP, were present in the assay at Km and approximately 10-fold below Km respectively. The enzyme was assayed at an intermediate level of activity to screen for both inhibitors and activators.
NCGC Assay Protocol Summary for L-isoform:
Three uL of substrate mix (at r.t.) in assay buffer (50 mM Imidazole pH7.2, 50 mM KCl, 7 mM MgCl2, 0.01% Tween 20, 0.05% BSA) was dispensed into white solid bottom 1,536 well microtiter plates so that the final concentrations of substrates in the assay were 0.1 mM ADP and 0.5 mM PEP. 23 nL of compound were delivered by a pin tool and 1 uL of enzyme mix (final concentration of 0.1 nM) in assay buffer (4 degree Celsius) was added. […] Two uL of detection mix (Kinase-Glo, Promega; at 4 degree Celsius protected from light) was added and luminescence read by a ViewLux (Perkin Elmer) at 1 second exposure/plate. […]

| SMILES | Potency |
| --- | --- |
| Cc1ccc(NS(=O)(=O)c2ccc3c(c2)C(Cl)(Cl)C(=O)N3)cc1C | inconclusive: 23.1 µM [rising, partial curve] |
| O=S(=O)(c1ccc2c(c1)OCCO2)N1CCN(S(=O)(=O)c2c(F)cccc2F)CC1 | inconclusive: 7.3 µM [rising, partial curve] |
